Assay results: patent US3960830 (dated 1976)

Experiments:
peptide synthesis = conditions: whole synthesis
[1] = general procedure: solution-phase peptide synthesis; soluble polyalkylene glycol support (PEG, PPG); Boc-amino acid anhydrides; conditions: whole synthesis

| Substance | isolated yield (peptide synthesis) | crude purity (method not given) ([1]; amino acid analysis) [%] | crude yield ([1]; calculated on Val) [%] |
| --- | --- | --- | --- |
| Arg-Pro-Lys-Pro-Gln-Gln-Phe-Phe-Gly-Leu-Met | about 35% | – | – |
| Leu-Ala-Gly-Val | – | 68 | 65 |
